# According to PubChem BioAssay AID1458 (National Center for Advancing Translational Sciences (NCATS), 2008):
# Out of some 210,000 compounds screened, about 5,900 (2.8%) were called active. About 5% were inconclusive and are not listed. Calls come from the whole dose curve; as a rule, active = well fitted activation curve with a large enough effect; inconclusive = small, poorly fitted or top-dose-only effect; inactive = no such curve, though single readings can be large or run the other way. The entries are a selection whose mix differs from that of the whole data set. Entries without a call were filed so in the source.
# Assay: qHTS Assay for Enhancers of SMN2 Splice Variant Expression; note: nearly all actives have a fitted effect of over 55% in size; for activity change, positive = activation: % of control where 0% means no effect
# Details: HEK293 SMN2-luciferase splicing reporter, luminescence, 30-36 h; activity change, positive = activation: at 46.1 µM (top of the series)
# Text: NIH Chemical Genomics Center [NCGC] NIH Molecular Libraries Probe Production centers Network [MLPCN] MLPCN Grant: R03 MH084179-01 Assay Submitter (PI): Elliot Androphy NCGC Assay Overview: Spinal muscular atrophy (SMA) is caused by insufficient levels of the survival motor neuron protein SMN. The SMN locus on chromosome 5q13 contains two inverted copies of SMN called SMN1 and SMN2 which are 99% identical at the amino acid level. SMN1 is a fully functional protein and SMN2 skips exon 7 90% of the time. Skipping of exon 7 produces non-functional protein product. 10% of the SMN2 protein includes exon 7 and is fully functional. In the SMA disease state, mutations in the SMN1 locus are the cause of the disease state. Because only 10% of SMN2 is of the fully functional form, it is not sufficient to overcome the deficiency produced by the loss of the SMN1 product. A therapy that either increase the amount of SMN2 product made or to increase the inclusion of exon 7 has been proposed for the treatment of SMA. We have designed an assay to identify small molecules that can increase the amount of functional SMN2 product by appending a luciferase reporter gene after the native SMN2 gene, such that inclusion of exon 7 in the expressed product places the luciferase sequence in frame, thus generating functional luciferase enzyme.
# NCGC Assay Protocol Summary: This screen utilizes a luciferase reporter gene assay, combining the promoter and splicing based cassettes in tandem with the major portion of the native SMN2 cDNA, and then transfected into HEK293 cells. Compounds that increase luciferase signal presumably enhance expression of the functional SMN2 splice variant. Passaging media contained DMEM w/ glutamax (+phenol red) 10% FCS, 1x pen/strep, 200 ug/ml hygro, 1x sodium pyruvate. Assay media contained DMEM w/ glutamax (-phenol red) 10% FCS, 1x pen strep, 1x pyruvate Sequence, Parameter, Value, Description (1) Cells, […], 2000 cells/well, 1536 TC treated White solid bottom plate (2) Time, 10-12 hours, 37C 5% CO2 (3) Compound, 23 nl, MLSMR Library (4) Control Compound, 23 nL, Sodium butyrate st 4.5mM (final) conc (5) Time, 30-36 hours, 37C 5% CO2 (6) Reagent, 3 ul, One Glo (TM) from Promega (7) Time, 5-15 minutes, Room temp (8) Detector, Viewlux: luminescent read, 60 second integration, high speed 2x binning Keywords: Spinal muscular atrophy, SMA, SMN2, high throughput screening, MLSMR, MLPCN, NIH Roadmap, qHTS and NCGC
# Potency is the fitted concentration of half-maximal effect.
Compound,"activity change, positive = activation",Potency
O=C1C2CCCN2C(c2cccnc2)N1c1cccc(Cl)c1 (configuration not stated),36.8%,
COc1cccc(C2=NOC(C(=O)N3CCC4(CC3)OCCO4)C2)c1 (configuration not stated),72.3%,
COC(=O)c1c(C)n(Cc2ccco2)c2ccc(O)cc12,-36.4%,
N=c1c2c(n(Cc3ccc(Cl)cc3Cl)c3c1CCC3)CCCC2,-51.1%,
CC(=O)c1c(O)c(C)c(O)c(Cc2c(O)c3c(c(C(=O)/C=C/c4ccccc4)c2O)OC(C)(C)C=C3)c1O,,inactive
O=C(Nc1ccc(F)cc1F)c1cccn(Cc2ccccc2)c1=O,inactive: -77.5%,
COc1ccc(CCC(=O)N2CCC3(CC2)OCCO3)cc1,37.3%,
CNc1ccc2oc(C[C@@H]3OC4(CC[C@@H]3C)O[C@H]([C@@H](C)C(=O)c3ccc[nH]3)[C@H](C)C[C@H]4C)nc2c1C(=O)O (some centres not stated),,inactive
CCC1/C=C/C=CCC(C)C(O)[C@@](C)(O)C(=O)C(C)C(O)C(C)C(=O)C(C)C(O)C(C)C=CC(=O)O[C@H]2C(C)C(CC1)O[C@]1(CCC(C)C(CC(C)O)O1)C2C (some centres not stated),inactive: -54%,
COc1ccccc1OCCCn1cc(C(=O)c2ccco2)c2ccccc21,inactive: -52%,
Cc1nc2c(C(=O)N3CCC4(CC3)OCCO4)cnn2c(C)c1Cc1cccc(Cl)c1,-38.8%,
C[N+]1(C)[C@@H]2CC(OC(=O)[C@@H](CO)c3ccccc3)C[C@@H]1[C@H]1O[C@H]12 (some centres not stated),inactive: -0.838% [at 9.22 µM],
CN(C)c1ccc(C=C2C(=O)NC(=O)NC2=O)cc1[N+](=O)[O-],23.5%,
O[C@H]1C2CCC1C(N1CCCCC1)CC2 (some centres not stated),36.8%,
C=C1C([C@@H](O)C[C@H](C)C2O[C@@]3(CCCCO3)CC[C@H]2C)OC2CC[C@@]3(CC[C@@H](/C=C/[C@@H](C)C4CC(C)=C[C@]5(O4)O[C@H](C[C@@](C)(O)C(=O)O)CCC5O)O3)OC2[C@@H]1O (some centres not stated),-57.9%,
COC(=O)[C@H]1C[C@@H]1[C@H](NP(=O)(c1ccccc1)c1ccccc1)c1ccccc1,,inactive
CC[C@@H]1CN2CCc3cc(OC)c(OC)cc3[C@H]2C[C@@H]1C[C@H]1NCCc2cc(OC)c(OC)cc21,inactive: -53.7% [at 20.6 µM],
NC(=O)c1ncn(C2OC(CO)C(O)C2O)n1 (configuration not stated),,active: 15.8 µM
NC(=O)CN1CC(c2ccccc2)CC1=O (configuration not stated),41.1%,

# Some values from the results shown.
# Entry for CN(C)c1ccc(C=C2C(=O)NC(=O)NC2=O)cc1[N+](=O)[O-] under activity change, positive = activation: 23.5%
# Entry for COc1ccccc1OCCCn1cc(C(=O)c2ccco2)c2ccccc21 under activity change, positive = activation: inactive: -52%
# Entry for O[C@H]1C2CCC1C(N1CCCCC1)CC2 (some centres not stated) under activity change, positive = activation: 36.8%
# Entry for CNc1ccc2oc(C[C@@H]3OC4(CC[C@@H]3C)O[C@H]([C@@H](C)C(=O)c3ccc[nH]3)[C@H](C)C[C@H]4C)nc2c1C(=O)O (some centres not stated) under Potency: inactive

# (more compounds)

Compound,"activity change, positive = activation",Potency
CC(C)(C)C(=O)c1cn(CC(=O)NCc2ccco2)c2ccccc12,,active: 14.1 µM
CC(=O)[O][Hg][c]1ccccc1,,inactive
CC(=O)N1CCc2cc(S(=O)(=O)N3CCN(c4ccc(C)cc4)C(C)C3)ccc21 (configuration not stated),inactive: -30.8%,
COc1ccc(Nc2ncc(C(=O)N3CCC4(CC3)OCCO4)c3ccccc23)cc1,30.2%,
O=C(CCCN1CCC2(CC1)C(=O)N(Cc1cccc(F)c1)CN2c1ccccc1)c1ccc(F)cc1,inactive: -96.1%,
Cc1c(C(c2ccc(F)cc2)c2c(O)c3ccccc3oc2=O)c(=O)n(-c2ccccc2)n1C (configuration not stated),34.4%,
COc1ccc(C(=O)Nc2ccc(Cl)cc2C(=O)c2ccccc2)c(OC)c1,inactive: -49.4%,
CNC(=O)Oc1cccc(-c2cn3cc(OC(=O)NC)ccc3n2)c1,,active: 12.6 µM
CC(=O)N1CCN(c2ccc(OC[C@@H]3CO[C@@](Cn4ccnc4)(c4ccc(Cl)cc4Cl)O3)cc2)CC1,inactive: -45.6% [at 20.6 µM],
CN(C)C(=O)Oc1ccc(OCc2cccc[n+]2C)cc1,-35.1%,
O=C(c1ccccc1)c1cn(CC(=O)N2CCCc3ccccc32)c2ccccc12,16%,
CCC(=O)c1cn(Cc2ccc(C#N)cc2)c2ccccc12,26.2%,
C=CCc1ccc2c(c1)OCO2,27.5%,
Cc1ccc(N2CCN(C(=O)C3CCC(CNS(=O)(=O)c4ccc(Br)s4)CC3)CC2C)cc1 (configuration not stated),inactive: -35.3%,
CC(=O)[O-].CC(=O)[O-].CC(=O)[O-].[Cr+3],inactive: -16.4%,
CCCCCc1nc2ccccc2c(=O)n1-c1ccccc1[N+](=O)[O-],-10.9%,
CC(C)[C@]12O[C@H]1[C@@H]1O[C@]13[C@]1(O[C@H]1C[C@H]1C4=C(CC[C@@]13C)C(=O)OC4)[C@@H]2O,-94.6%,
Cc1nnc(SCc2nc3ccccc3c(=O)n2-c2ccccc2Cl)n1N,43%,
CCCn1c(C(=O)c2ccccc2)nc2ccccc21,inactive: -24.3%,

Compound,"activity change, positive = activation",Potency
CC(C)(C)C(=O)NC1CCSC1=O (configuration not stated),33.9%,
CC1OC(NCCc2ccccc2)C(O)C(O)C1O (configuration not stated),33.4%,
O=c1c2ccccc2nc(-c2ccco2)n1-c1nccs1,27.4%,
O=C(O)[C@@H]1[C@H](C(=O)O)[C@]2(Cl)C(Cl)=C(Cl)[C@@]1(Cl)C2(Cl)Cl,inactive: -63.8% [at 9.22 µM],
Cc1nc2c(c(C)nn2-c2ccccc2)c(C)c1CCC(=O)N1CCC2(CC1)OCCO2,18.1%,
CCCCCCn1c(=O)c(C(=O)Nc2ccncc2)c(O)c2ccccc21,-64.7%,
CC1O[C@@H](O[C@@H]2C(O)C[C@H](O[C@@H]3C(O)C[C@@H](OC4CC[C@@]5(C)C6CC[C@]7(C)C(C8=CC(=O)OC8)CC[C@@]7(O)C6CC[C@@H]5C4)OC3C)OC2C)CC(O)[C@H]1O (some centres not stated),inactive: -75.9%,
CCCCn1c(O)c(C(C)=Nc2cccc(C(=O)O)c2)c(=O)[nH]c1=O,36.5%,
CC1CC2(O)c3nonc3CCC2N1O (configuration not stated),41.7%,
CCOc1ccc(CCNC(=O)c2ccc(CS(=O)(=O)c3ccccc3C)o2)cc1OCC,inactive: -30.5%,
CCn1nc(-c2ccccc2)nc2c(=O)n(C)c(=O)nc1-2,,active: 7.08 µM
C[C@@H]1C[C@@H]([C@H](O)CC2CC(=O)NC(=O)C2)C(=O)[C@@H](C)C1,,inactive
CCC(C(=O)O)C1CCC(C)C(C(C)C(O)C(C)C(=O)C(CC)C2OC3(C=CC(O)[C@@]4(CC[C@](C)(C5CC[C@@](O)(CC)C(C)O5)O4)O3)C(C)CC2C)O1 (some centres not stated),inactive: -50.2%,
COc1cc2c(cc1OC)C1C(=O)c3c(cc4c(c3O)C=CC(C)(C)O4)OC1CO2 (configuration not stated),inactive: -57.6%,
CCOc1ccc2nc(N3CCC(C(=O)N4CCC5(CC4)OCCO5)CC3)sc2c1,-66.3%,
O=c1[nH]c(=S)[nH]c(O)c1N=Nc1ccc(OC(F)F)cc1,,active: 12.6 µM
COc1ccc(-c2cc(=NCCC(=O)O)c3cc(C)ccc3o2)cc1,150%,
O=C(c1cc(C(=O)NCc2ccc(Cl)cc2)c(=O)n(Cc2ccc(Cl)cc2)c1)c1cc(F)ccc1O,-58.8%,
COc1ccc(-c2cc(=Nc3cccc(C(=O)O)c3)c3cc(C)ccc3o2)cc1,93.3%,
